Some values come without a unit; they compare only within their column.
Key:
[1] = Serum ethanolamine phospholipid ratios to PtdEt 16:0/18:0 (M01) in human cohorts
[2] = Serum ethanolamine phospholipid levels in human cohorts (dementia severity, post-mortem pathology, age) by flow-injection MS/MS
[3] = serum, females, post mortem SDAT
[4] = serum, females, post mortem control

Structure (SMILES): CC/C=C\C/C=C\C/C=C\C/C=C\C/C=C\C/C=C\CCC(=O)O [Metabolite M25, Free 22:6]
- Ratio of ethanolamine phospholipid ratios to M01 between cohorts ([1]; AD, All to CN, Male): 0.965
- Ratio of ethanolamine phospholipid ratios to M01 between cohorts ([1]; ADAS 5-19 to CN, Male): 1.025
- Ratio of ethanolamine phospholipid ratios to M01 between cohorts ([1]; ADAS 20-39 to CN, Male): 0.973
- Ratio of ethanolamine phospholipid ratios to M01 between cohorts ([1]; ADAS 40-70 to CN, Male): 0.838
- Average serum ethanolamine phospholipid ratio to M01, Mean ([1]; Cognitive Normal, Male, serum): 2.160
- Average serum ethanolamine phospholipid ratio to M01, Mean ([1]; SDAT, ADAS 5-19, Male, serum): 2.215
- Average serum ethanolamine phospholipid ratio to M01, Mean ([1]; SDAT, ADAS 20-39, Male, serum): 2.102
- Average serum ethanolamine phospholipid ratio to M01, Mean ([1]; SDAT, ADAS 40-70, Male, serum): 1.811
- Average serum ethanolamine phospholipid ratio to M01, Mean ([1]; SDAT_all, Male, serum): 2.085
- Ethanolamine Phospholipid Ratio to M01, Mean, Age Ctl, 30-39, Female ([1]; human serum, females aged 30-39): 2.505
- Ethanolamine Phospholipid Ratio to M01, Mean, Age Ctl, 40-49, Female ([1]; human serum, females aged 40-49): 2.286
- Ethanolamine Phospholipid Ratio to M01, Mean, Age Ctl, 50-59, Female ([1]; human serum, females aged 50-59): 3.219
- Ratio of Ethanolamine Phospholipid Ratio to M01, 50-59 vs. 40-49, Female ([1]; human serum, females aged 50-59 vs. females aged 40-49): 1.408
- Ethanolamine Phospholipid Ratio to M01, Mean, Age Ctl, 60-69, Female ([1]; human serum, females aged 60-69): 2.995
- Ratio of Ethanolamine Phospholipid Ratio to M01, 60-69 vs. 40-49, Female ([1]; human serum, females aged 60-69 vs. females aged 40-49): 1.310
- Ethanolamine Phospholipid Ratio to M01, Mean, Age Ctl, 70+_Female ([1]; human serum, females aged 70+): 3.280
- Ratio of Ethanolamine Phospholipid Ratio to M01, 70+ vs. 40-49, Female ([1]; human serum, females aged 70+ vs. females aged 40-49): 1.435
- Ratio of Ethanolamine Phospholipid Ratio to M01, 50-59 vs. 40-49, Male ([1]; human serum, males aged 50-59 vs. males aged 40-49): 1.391
- Ratio of Ethanolamine Phospholipid Ratio to M01, 60-69 vs. 40-49, Male ([1]; human serum, males aged 60-69 vs. males aged 40-49): 1.321
- Ratio of Ethanolamine Phospholipid Ratio to M01, 70+ vs. 40-49, Male ([1]; human serum, males aged 70+ vs. males aged 40-49): 1.553
- Ratio of ethanolamine phospholipid ratio to M01, ADAS 5-19 to CN, Female ([1]; serum, females, ADAS 5-19 vs cognitive normal): 0.966
- Ratio of ethanolamine phospholipid ratio to M01, ADAS 20-39 to 5-19, Female ([1]; serum, females, ADAS 20-39 vs ADAS 5-19): 1.018
- Ratio of ethanolamine phospholipid ratio to M01, ADAS 20-39 to CN, Female ([1]; serum, females, ADAS 20-39 vs cognitive normal): 0.983
- Ratio of ethanolamine phospholipid ratio to M01, ADAS 40-70 to 5-19, Female ([1]; serum, females, ADAS 40-70 vs ADAS 5-19): 0.922
- Ratio of ethanolamine phospholipid ratio to M01, ADAS 40-70 to 20-39, Female ([1]; serum, females, ADAS 40-70 vs ADAS 20-39): 0.906
- Ratio of ethanolamine phospholipid ratio to M01, ADAS 40-70 to CN, Female ([1]; serum, females, ADAS 40-70 vs cognitive normal): 0.890
- Ethanolamine phospholipid ratio to M01, Mean, SDAT, ADAS 5-19, Female ([1]; serum, females, SDAT ADAS 5-19): 2.072
- Ethanolamine phospholipid ratio to M01, Mean, SDAT, ADAS 20-39, Female ([1]; serum, females, SDAT ADAS 20-39): 2.109
- Ethanolamine phospholipid ratio to M01, Mean, SDAT, ADAS 40-70, Female ([1]; serum, females, SDAT ADAS 40-70): 1.910
- Ratio of ethanolamine phospholipid ratio to M01, AD, All to CN, Female ([1]; serum, females, all AD vs cognitive normal): 0.947
- Ethanolamine phospholipid ratio to M01, Mean, SDAT_all Female ([1]; serum, females, all SDAT): 2.031
- Ratio of ethanolamine phospholipid ratio to M01, Autopsy AD vs. Control, Female ([1]; serum, females, autopsy AD vs post mortem control): 1.279
- Ethanolamine phospholipid ratio to M01, Mean, Cognitive Normal, Female ([1]; serum, females, cognitive normal): 2.145
- Ethanolamine phospholipid ratio to M01, Mean, Post Mortem SDAT Female [1, 3]: 1.767
- Ethanolamine phospholipid ratio to M01, Mean, Post Mortem Ctl, Female [1, 4]: 1.382
- Ratio of ethanolamine phospholipid ratio to M01, ADAS 20-39 to 5-19, Male ([1]; serum, males, SDAT ADAS 20-39 vs ADAS 5-19): 0.949
- Ratio of ethanolamine phospholipid ratio to M01, ADAS 40-70 to 5-19, Male ([1]; serum, males, SDAT ADAS 40-70 vs ADAS 5-19): 0.818
- Ratio of ethanolamine phospholipid ratio to M01, ADAS 40-70 to 20-39, Male ([1]; serum, males, SDAT ADAS 40-70 vs ADAS 20-39): 0.862
- Ethanolamine phospholipid ratio to M01, Mean, Age Ctl, 30-39, Male ([1]; serum, males, age control 30-39): 2.182
- Ethanolamine phospholipid ratio to M01, Mean, Age Ctl, 40-49, Male ([1]; serum, males, age control 40-49): 1.975
- Ethanolamine phospholipid ratio to M01, Mean, Age Ctl, 50-59, Male ([1]; serum, males, age control 50-59): 2.747
- Ethanolamine phospholipid ratio to M01, Mean, Age Ctl, 60-69, Male ([1]; serum, males, age control 60-69): 2.608
- Ethanolamine phospholipid ratio to M01, Mean, Age Ctl, 70+_Male ([1]; serum, males, age control 70+): 3.066
- Ethanolamine phospholipid ratio to M01, Mean, Post Mortem SDAT Male ([1]; serum, males, post mortem SDAT): 2.384
- Ratio of ethanolamine phospholipid ratio to M01, SDAT vs Control (post mortem, males) ([1]; serum, males, post mortem SDAT vs post mortem control): 1.154
- Ethanolamine phospholipid ratio to M01, Mean, Post Mortem Ctl, Male ([1]; serum, males, post mortem control): 2.066
- Ratio of serum levels ([2]; AD, All to CN, Male): 0.909
- Ratio of serum levels ([2]; ADAS 5-19 to CN, Male): 1.035
- Ratio of serum levels ([2]; ADAS 20-39 to 5-19, Male): 0.836
- Ratio of serum levels ([2]; ADAS 20-39 to CN, Male): 0.865
- Ratio of serum levels ([2]; ADAS 40-70 to 5-19, Male): 0.735
- Ratio of serum levels ([2]; ADAS 40-70 to 20-39, Male): 0.879
- Ratio of serum levels ([2]; ADAS 40-70 to CN, Male): 0.760
- Serum level, Mean ([2]; Cognitive Normal, Female): 0.241
- Average serum level, Mean ([2]; Cognitive Normal, Male): 0.240
- Serum level, Mean ([2]; Post Mortem Ctl, Male): 0.238
- Serum level, Mean ([2]; Post Mortem SDAT Male): 0.180
- Ratio of serum levels ([2]; Post mortem SDAT vs Control, Male): 0.757
- Serum level, Mean ([2]; SDAT, ADAS 5-19, Female): 0.218
- Average serum level, Mean ([2]; SDAT, ADAS 5-19, Male): 0.249
- Serum level, Mean ([2]; SDAT, ADAS 20-39, Female): 0.212
- Average serum level, Mean ([2]; SDAT, ADAS 20-39, Male): 0.208
- Serum level, Mean ([2]; SDAT, ADAS 40-70, Female): 0.204
- Average serum level, Mean ([2]; SDAT, ADAS 40-70, Male): 0.183
- Serum level, Mean ([2]; SDAT_all, Female): 0.211
- Average serum level, Mean ([2]; SDAT_all, Male): 0.218
- Ratio, ADAS 5-19 to CN, Female ([2]; serum level ratio, females, ADAS 5-19 vs CN): 0.907
- Ratio, ADAS 20-39 to 5-19, Female ([2]; serum level ratio, females, ADAS 20-39 vs ADAS 5-19): 0.971
- Ratio, ADAS 20-39 to CN, Female ([2]; serum level ratio, females, ADAS 20-39 vs CN): 0.880
- Ratio, ADAS 40-70 to 5-19, Female ([2]; serum level ratio, females, ADAS 40-70 vs ADAS 5-19): 0.934
- Ratio, ADAS 40-70 to 20-39, Female ([2]; serum level ratio, females, ADAS 40-70 vs ADAS 20-39): 0.962
- Ratio, ADAS 40-70 to CN, Female ([2]; serum level ratio, females, ADAS 40-70 vs CN): 0.847
- Ratio, 50-59 vs. 40-49, Female ([2]; serum level ratio, females, age 50-59 vs 40-49): 1.176
- Ratio, 60-69 vs. 40-49, Female ([2]; serum level ratio, females, age 60-69 vs 40-49): 1.381
- Ratio, 70+ vs. 40-49, Female ([2]; serum level ratio, females, age 70+ vs 40-49): 1.581
- Ratio, AD, All to CN, Female ([2]; serum level ratio, females, all AD vs cognitively normal): 0.876
- Ratio, Autopsy AD vs. Control, Female ([2]; serum level ratio, females, autopsy AD vs control): 1.051
- Ratio, 50-59 vs. 40-49, Male ([2]; serum level ratio, males, age 50-59 vs 40-49): 1.405
- Ratio, 60-69 vs. 40-49, Male ([2]; serum level ratio, males, age 60-69 vs 40-49): 1.589
- Ratio, 70+ vs. 40-49, Male ([2]; serum level ratio, males, age 70+ vs 40-49): 1.912
- Mean serum level, Age Ctl, 30-39, Female ([2]; serum, females, age 30-39): 0.239
- Mean serum level, Age Ctl, 40-49, Female ([2]; serum, females, age 40-49): 0.236
- Mean serum level, Age Ctl, 50-59, Female ([2]; serum, females, age 50-59): 0.277
- Mean serum level, Age Ctl, 60-69, Female ([2]; serum, females, age 60-69): 0.326
- Mean serum level, Age Ctl, 70+, Female ([2]; serum, females, age 70+): 0.373
- Mean serum level, Post Mortem SDAT, Female [2, 3]: 0.198
- Mean serum level, Post Mortem Ctl, Female [2, 4]: 0.189
- Mean serum level, Age Ctl, 30-39, Male ([2]; serum, males, age 30-39): 0.205
- Mean serum level, Age Ctl, 40-49, Male ([2]; serum, males, age 40-49): 0.195
- Mean serum level, Age Ctl, 50-59, Male ([2]; serum, males, age 50-59): 0.274
- Mean serum level, Age Ctl, 60-69, Male ([2]; serum, males, age 60-69): 0.310
- Mean serum level, Age Ctl, 70+, Male ([2]; serum, males, age 70+): 0.374
